Experimental data as given in PMC12591035, “Bni5 regulates and coordinates septin architecture and myosin-II functions at the cell division site” (The Journal of Cell Biology, 2025).
These are yes or no findings as the source states them, for the method shown. For some assays here: In cells and extracts the contact can be indirect. Some binding calls cover weakened binding; strength is not graded here. Where a sequence is shown, tags or fusion partners need not be part of it. Blank lines part the entries; values can stand above or below the binder they belong to.

Tests used:
[1] = biological target: T1, GST-Bni5-HR2-HR3 (GST-Bni5(340-448)) (S. cerevisiae) (UniProt P53890); experiment: pull-down; 3.5 μg GST fusion on glutathione resin with 3.5 μg His6-Sumo-Elm1-C or MBP-Myo1-mTD1; 20 mM MOPS pH 7.0, 1 mM EGTA, 150 mM NaCl, 1 mM DTT, 0.1% NP-40; 1 h; five washes; Coomassie gel and anti-6xHis or anti-MBP blot; both purified
T1 sequence: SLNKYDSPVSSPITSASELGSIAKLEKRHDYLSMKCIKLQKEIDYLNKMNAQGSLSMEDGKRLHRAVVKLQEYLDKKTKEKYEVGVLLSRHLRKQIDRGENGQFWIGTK

[2] = biological target: T2, GST-Bni5-Ext-HR2 (GST-Bni5(306-393)) (S. cerevisiae) (UniProt P53890); experiment: as above
T2 sequence: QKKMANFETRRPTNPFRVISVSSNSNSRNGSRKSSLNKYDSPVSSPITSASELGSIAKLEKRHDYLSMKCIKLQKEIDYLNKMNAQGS

[3] = biological target: T3, His6-Cdc12 (S. cerevisiae) (UniProt P32468); experiment: pull-down; co-purification: septins co-expressed in E. coli BL21(DE3), complexes held on His-tag resin through His6-Cdc12 in 300 mM NaCl buffer, eluted with imidazole; Coomassie gel, anti-Shs1 blot
T3 sequence: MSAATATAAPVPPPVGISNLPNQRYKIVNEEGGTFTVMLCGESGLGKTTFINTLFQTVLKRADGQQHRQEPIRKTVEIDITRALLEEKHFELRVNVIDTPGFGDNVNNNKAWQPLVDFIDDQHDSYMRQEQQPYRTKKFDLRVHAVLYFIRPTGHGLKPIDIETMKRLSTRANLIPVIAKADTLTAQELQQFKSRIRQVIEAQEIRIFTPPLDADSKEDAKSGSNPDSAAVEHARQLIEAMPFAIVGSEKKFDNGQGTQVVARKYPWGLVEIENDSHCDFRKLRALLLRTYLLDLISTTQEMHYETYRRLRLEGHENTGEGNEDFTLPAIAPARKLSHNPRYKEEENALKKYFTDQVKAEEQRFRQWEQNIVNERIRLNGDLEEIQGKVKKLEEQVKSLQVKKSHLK

B1: His-SUMO-Elm1(421-640) (domain or fragment, UniProt P32801 421-640)
chain: SSSSVNPVRNEGPVRRFFGRLLTKKGKKKTSGKGKDKVLVSATSKVTPSIHIDEEPDKECFSTTVLRSSPDSSDYCSSLGEEAIQVTDFLDTFCRSNESLPNLTVNNDKQNSDMKTDRSESSSHSSLKIPTPIKAMIRLKSSPKENGNRTHINCSQDKPSSPLMDRTVGKRTVNNSGARKLAHSSNILNFKAYINSEDSDIRETVEDVKTYLNFADNGQI
binding [1]: binds weakly | binding [2]: binds weakly

B3: Shs1 (protein, UniProt Q07657 1-551)
chain: MSTASTPPINLFRRKKEHKRGITYTMLLCGPAGTGKTAFANNLLETKIFPHKYQYGKSNASISSNPEVKVIAPTKVVSFNSKNGIPSYVSEFDPMRANLEPGITITSTSLELGGNKDQGKPEMNEDDTVFFNLIMTHGIGENLDDSLCSEEVMSYLEQQFDIVLAEETRIKRNPRFEDTRVHVALYFIEPTGHGLREVDVELMKSISKYTNVLPIITRADSFTKEELTQFRKNIMFDVERYNVPIYKFEVDPEDDDLESMEENQALASLQPFAIITSDTRDSEGRYVREYPWGIISIDDDKISDLKVLKNVLFGSHLQEFKDTTQNLLYENYRSEKLSSVANAEEIGPNSTKRQSNAPSLSNFASLISTGQFNSSQTLANNLRADTPRNQVSGNFKENEYEDNGEHDSAENEQEMSPVRQLGREIKQENENLIRSIKTESSPKFLNSPDLPERTKLRNISETVPYVLRHERILARQQKLEELEAQSAKELQKRIQELERKAHELKLREKLINQNKLNGSSSSINSLQQSTRSQIKKNDTYTDLASIASGRD
binding [3]: binds

Second part, the binder after the results:

binding [3]: binds
B2: Cdc10 (protein, UniProt P25342 1-322)
chain: MDPLSSVQPASYVGFDTITNQIEHRLLKKGFQFNIMVVGQSGLGKSTLINTLFASHLIDSATGDDISALPVTKTTEMKISTHTLVEDRVRLNINVIDTPGFGDFIDNSKAWEPIVKYIKEQHSQYLRKELTAQRERFITDTRVHAILYFLQPNGKELSRLDVEALKRLTEIANVIPVIGKSDTLTLDERTEFRELIQNEFEKYNFKIYPYDSEELTDEELELNRSVRSIIPFAVVGSENEIEINGETFRGRKTRWSAINVEDINQCDFVYLREFLIRTHLQDLIETTSYIHYEGFRARQLIALKENANSRSSAHMSSNAIQR

binding [3]: binds
B4: Cdc3 (protein, UniProt P32457 1-520)
chain: MSLKEEQVSIKQDPEQEERQHDQFNDVQIKQESQDHDGVDSQYTNGTQNDDSERFEAAESDVKVEPGLGMGITSSQSEKGQVLPDQPEIKFIRRQINGYVGFANLPKQWHRRSIKNGFSFNLLCVGPDGIGKTTLMKTLFNNDDIEANLVKDYEEELANDQEEEEGQGEGHENQSQEQRHKVKIKSYESVIEENGVKLNLNVIDTEGFGDFLNNDQKSWDPIIKEIDSRFDQYLDAENKINRHSINDKRIHACLYFIEPTGHYLKPLDLKFMQSVYEKCNLIPVIAKSDILTDEEILSFKKTIMNQLIQSNIELFKPPIYSNDDAENSHLSERLFSSLPYAVIGSNDIVENYSGNQVRGRSYPWGVIEVDNDNHSDFNLLKNLLIKQFMEELKERTSKILYENYRSSKLAKLGIKQDNSVFKEFDPISKQQEEKTLHEAKLAKLEIEMKTVFQQKVSEKEKKLQKSETELFARHKEMKEKLTKQLKALEDKKKQLELSINSASPNVNHSPVPTKKKGFLR
